Patent publication US20240252474A1, “METHODS AND COMPOSITIONS COMPRISING A CARDIO-TOLERATED HDAC INHIBITOR” (HUYABIO International, LLC, priority 2023, published 2024)
At least one compound was matched to its structure with a doubt left.

Test system: advanced solid tumors, including melanoma, RCC (renal cell carcinoma), and NSCLC (non-small cell lung cancer)
Experiment: Tumor response by RECIST v.1.1
Format: in vivo, human
Details: HBI-8000 + nivolumab; 3 NSCLC patients
Source text: The decision to escalate the dose was based on the conventional 3+3 design and observed incidences of dose-limiting toxicities (DLTs). Each treatment cycle was defined as 28 days. To be evaluable for DLT, a subject must have developed DLT, or received the minimum 75% of the planned HBI-8000 dose within the 28-day DLT evaluation period in the absence of treatment delays due to toxicities. Subjects experiencing DLT within the first two weeks after having received 100% of assigned dose of HBI-8000 are also evaluable for DLT. Unacceptable toxicities were defined as grade 3 or higher non-hematologic and hematologic toxicities with clinical complications. Unacceptable toxicities observed over the first 28 days following HBI-8000 administration were considered as DLTs. The RP2D was identified as the highest dose at which the DLT incidence was less than 33.3%. HBI-8000 administration continued until disease progression or unacceptable toxicity was observed. The efficacy of the combination was further evaluated in an expanded cohort of selected patient populations at RP2D based on an objective response rate according to Response Evaluation Criteria in Solid Tumors (RECIST) version 1.1 criteria, progression-free survival, and duration of responses. […]

`Nc1cc(F)ccc1NC(=O)c1ccc(CNC(=O)/C=C/c2cccnc2)cc1` [HBI-8000, N-(2-amino-4-fluorophenyl)-4-[[[(2E)-1-oxo-3-(3-pyridinyl)-2-propen-1-yl]amino]methyl]benzamide] was tested, and the “NSCLC, progressive disease” value was “no progressive disease”.
